The values that follow come from paper PMC3395697.

The chains behind the UniProt entries cited, without tags or fusion partners.
UniProt O09106: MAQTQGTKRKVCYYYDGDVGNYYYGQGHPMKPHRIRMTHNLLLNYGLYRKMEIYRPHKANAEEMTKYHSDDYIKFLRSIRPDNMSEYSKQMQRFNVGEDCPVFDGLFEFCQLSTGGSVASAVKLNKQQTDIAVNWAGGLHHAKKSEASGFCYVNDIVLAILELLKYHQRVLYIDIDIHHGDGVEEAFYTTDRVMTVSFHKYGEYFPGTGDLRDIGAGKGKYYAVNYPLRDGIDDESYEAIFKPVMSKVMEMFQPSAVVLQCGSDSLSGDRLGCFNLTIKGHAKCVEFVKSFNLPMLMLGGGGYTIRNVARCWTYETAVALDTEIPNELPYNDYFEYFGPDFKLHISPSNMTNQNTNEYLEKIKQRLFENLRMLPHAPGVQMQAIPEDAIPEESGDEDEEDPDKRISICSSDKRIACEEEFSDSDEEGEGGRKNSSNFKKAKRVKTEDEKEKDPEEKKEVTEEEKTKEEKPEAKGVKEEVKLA
UniProt Q13547: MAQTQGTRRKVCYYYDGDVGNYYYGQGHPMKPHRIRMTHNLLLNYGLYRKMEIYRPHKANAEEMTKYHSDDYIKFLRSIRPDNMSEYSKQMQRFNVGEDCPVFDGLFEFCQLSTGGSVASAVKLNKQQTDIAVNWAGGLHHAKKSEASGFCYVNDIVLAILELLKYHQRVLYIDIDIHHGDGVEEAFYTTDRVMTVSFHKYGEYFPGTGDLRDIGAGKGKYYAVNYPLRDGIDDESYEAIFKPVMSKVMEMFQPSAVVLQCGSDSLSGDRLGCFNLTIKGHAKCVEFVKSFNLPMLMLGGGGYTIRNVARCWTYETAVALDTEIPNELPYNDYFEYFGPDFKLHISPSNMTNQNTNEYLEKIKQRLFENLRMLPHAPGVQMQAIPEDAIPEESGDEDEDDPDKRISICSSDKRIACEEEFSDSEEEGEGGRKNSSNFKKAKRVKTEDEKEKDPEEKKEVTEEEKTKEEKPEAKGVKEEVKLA

Test [1] concerns the target T1, MYC epitope tagged human ING2 (ΔLZ), lacking amino acids 1 to 23 (leucine zipper motif) (human) (UniProt Q9H160).
T1 sequence: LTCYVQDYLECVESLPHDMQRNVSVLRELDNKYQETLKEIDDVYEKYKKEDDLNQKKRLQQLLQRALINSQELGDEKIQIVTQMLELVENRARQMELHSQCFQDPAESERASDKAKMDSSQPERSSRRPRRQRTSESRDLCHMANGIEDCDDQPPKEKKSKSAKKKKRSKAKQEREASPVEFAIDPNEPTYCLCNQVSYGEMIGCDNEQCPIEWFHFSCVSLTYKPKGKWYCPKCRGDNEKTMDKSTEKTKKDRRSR
Briefly: co-IP; lysates of co-transfected 293T cells; ING2 immunoprecipitated by its tag (anti-MYC in Figure 5A, anti-FLAG in Figure 5B), partner detected by blot of its tag.

The target of test [2] is T2, MYC epitope tagged wild type human ING2 (human) (UniProt Q9H160).
T2 sequence: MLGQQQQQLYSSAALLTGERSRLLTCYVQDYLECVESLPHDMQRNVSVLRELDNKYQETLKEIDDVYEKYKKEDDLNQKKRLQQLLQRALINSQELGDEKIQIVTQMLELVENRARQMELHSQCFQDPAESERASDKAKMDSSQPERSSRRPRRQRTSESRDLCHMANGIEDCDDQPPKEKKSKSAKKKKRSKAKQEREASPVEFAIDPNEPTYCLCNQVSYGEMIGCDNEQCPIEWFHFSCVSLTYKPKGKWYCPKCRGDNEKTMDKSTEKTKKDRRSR
Described as above.

The target in test [3] is T3, FLAG/tagged ING2 expressed in C2C12 cells (human) (UniProt Q9H160).
T3 sequence: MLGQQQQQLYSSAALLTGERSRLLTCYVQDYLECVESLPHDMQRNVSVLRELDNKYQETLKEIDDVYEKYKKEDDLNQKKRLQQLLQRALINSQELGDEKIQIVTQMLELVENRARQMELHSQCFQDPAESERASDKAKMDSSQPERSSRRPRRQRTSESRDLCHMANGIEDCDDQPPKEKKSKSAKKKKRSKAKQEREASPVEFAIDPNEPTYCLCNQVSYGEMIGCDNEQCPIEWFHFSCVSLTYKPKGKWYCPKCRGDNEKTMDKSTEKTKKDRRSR
Briefly: co-IP; sequential: lysates of C2C12 cells transfected with FLAG/ING2; anti-FLAG immunoprecipitation, FLAG peptide elution, immunoprecipitation of the eluate with mouse anti-Sin3A antibody or mouse anti-IgG control; blots for ING2, HDAC1, Sin3A.

Test [4] concerns the target T4, endogenous Sin3A of C2C12 myoblasts (mouse (endogenous in C2C12)) (UniProt Q60520).
T4 sequence: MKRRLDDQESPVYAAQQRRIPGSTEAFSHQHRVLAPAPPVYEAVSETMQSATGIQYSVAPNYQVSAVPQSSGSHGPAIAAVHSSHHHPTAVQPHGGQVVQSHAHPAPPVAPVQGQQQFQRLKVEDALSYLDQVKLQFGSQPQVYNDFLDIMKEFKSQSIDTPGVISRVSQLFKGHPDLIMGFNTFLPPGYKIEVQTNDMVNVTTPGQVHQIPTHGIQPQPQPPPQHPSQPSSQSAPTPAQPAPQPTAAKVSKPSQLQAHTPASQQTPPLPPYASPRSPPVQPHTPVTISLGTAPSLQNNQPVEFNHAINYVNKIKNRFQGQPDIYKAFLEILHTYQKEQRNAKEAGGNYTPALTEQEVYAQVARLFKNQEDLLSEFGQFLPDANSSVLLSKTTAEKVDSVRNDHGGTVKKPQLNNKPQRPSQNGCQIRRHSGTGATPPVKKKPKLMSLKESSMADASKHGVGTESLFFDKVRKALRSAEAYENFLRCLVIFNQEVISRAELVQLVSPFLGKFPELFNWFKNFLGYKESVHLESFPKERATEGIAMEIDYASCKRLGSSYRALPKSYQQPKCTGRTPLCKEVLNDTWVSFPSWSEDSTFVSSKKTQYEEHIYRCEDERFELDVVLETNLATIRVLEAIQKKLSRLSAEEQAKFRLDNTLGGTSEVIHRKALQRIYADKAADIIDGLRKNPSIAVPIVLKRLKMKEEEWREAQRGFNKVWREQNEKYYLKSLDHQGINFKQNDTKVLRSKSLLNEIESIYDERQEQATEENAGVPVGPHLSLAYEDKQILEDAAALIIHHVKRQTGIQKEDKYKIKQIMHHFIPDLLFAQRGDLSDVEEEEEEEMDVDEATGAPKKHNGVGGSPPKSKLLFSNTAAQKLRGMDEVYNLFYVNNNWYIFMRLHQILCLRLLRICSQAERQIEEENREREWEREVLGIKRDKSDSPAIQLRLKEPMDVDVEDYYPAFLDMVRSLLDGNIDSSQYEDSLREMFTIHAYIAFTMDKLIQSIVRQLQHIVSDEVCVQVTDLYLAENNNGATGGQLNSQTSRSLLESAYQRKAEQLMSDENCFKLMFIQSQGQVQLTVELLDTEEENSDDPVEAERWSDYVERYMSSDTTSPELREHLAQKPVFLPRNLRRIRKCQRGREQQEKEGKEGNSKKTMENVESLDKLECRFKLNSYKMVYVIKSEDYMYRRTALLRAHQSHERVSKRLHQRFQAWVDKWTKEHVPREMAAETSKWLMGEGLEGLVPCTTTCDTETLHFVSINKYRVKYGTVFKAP
The description is as above.

Test [5] concerns the target endogenous HDAC1 of C2C12 myoblasts (mouse (endogenous in C2C12)) (UniProt O09106). The test can be described thus: co-IP; lysates of C2C12 cells in growth media or one day in differentiation media; endogenous HDAC1 (Figure 5C) or Sin3A (Figure 5D) immunoprecipitated, irrelevant antibody as control; blots for ING2, Sin3A, HDAC1.
Test [6] deals with T4, endogenous Sin3A of C2C12 myoblasts (mouse (endogenous in C2C12)). Described as above.
Another test addresses FLAG-tagged HDAC1 (UniProt Q13547). The test can be described thus: co-IP; sequential: lysates of 293T cells transfected with MYC-ING2, MYC-Sin3A and FLAG-HDAC1; anti-FLAG immunoprecipitation, FLAG peptide elution, Sin3A immunoprecipitation of the eluate; blots for ING2, HDAC1, Sin3A.
Another test has as its target T5, MYC-tagged Sin3A (UniProt Q96ST3).
T5 sequence: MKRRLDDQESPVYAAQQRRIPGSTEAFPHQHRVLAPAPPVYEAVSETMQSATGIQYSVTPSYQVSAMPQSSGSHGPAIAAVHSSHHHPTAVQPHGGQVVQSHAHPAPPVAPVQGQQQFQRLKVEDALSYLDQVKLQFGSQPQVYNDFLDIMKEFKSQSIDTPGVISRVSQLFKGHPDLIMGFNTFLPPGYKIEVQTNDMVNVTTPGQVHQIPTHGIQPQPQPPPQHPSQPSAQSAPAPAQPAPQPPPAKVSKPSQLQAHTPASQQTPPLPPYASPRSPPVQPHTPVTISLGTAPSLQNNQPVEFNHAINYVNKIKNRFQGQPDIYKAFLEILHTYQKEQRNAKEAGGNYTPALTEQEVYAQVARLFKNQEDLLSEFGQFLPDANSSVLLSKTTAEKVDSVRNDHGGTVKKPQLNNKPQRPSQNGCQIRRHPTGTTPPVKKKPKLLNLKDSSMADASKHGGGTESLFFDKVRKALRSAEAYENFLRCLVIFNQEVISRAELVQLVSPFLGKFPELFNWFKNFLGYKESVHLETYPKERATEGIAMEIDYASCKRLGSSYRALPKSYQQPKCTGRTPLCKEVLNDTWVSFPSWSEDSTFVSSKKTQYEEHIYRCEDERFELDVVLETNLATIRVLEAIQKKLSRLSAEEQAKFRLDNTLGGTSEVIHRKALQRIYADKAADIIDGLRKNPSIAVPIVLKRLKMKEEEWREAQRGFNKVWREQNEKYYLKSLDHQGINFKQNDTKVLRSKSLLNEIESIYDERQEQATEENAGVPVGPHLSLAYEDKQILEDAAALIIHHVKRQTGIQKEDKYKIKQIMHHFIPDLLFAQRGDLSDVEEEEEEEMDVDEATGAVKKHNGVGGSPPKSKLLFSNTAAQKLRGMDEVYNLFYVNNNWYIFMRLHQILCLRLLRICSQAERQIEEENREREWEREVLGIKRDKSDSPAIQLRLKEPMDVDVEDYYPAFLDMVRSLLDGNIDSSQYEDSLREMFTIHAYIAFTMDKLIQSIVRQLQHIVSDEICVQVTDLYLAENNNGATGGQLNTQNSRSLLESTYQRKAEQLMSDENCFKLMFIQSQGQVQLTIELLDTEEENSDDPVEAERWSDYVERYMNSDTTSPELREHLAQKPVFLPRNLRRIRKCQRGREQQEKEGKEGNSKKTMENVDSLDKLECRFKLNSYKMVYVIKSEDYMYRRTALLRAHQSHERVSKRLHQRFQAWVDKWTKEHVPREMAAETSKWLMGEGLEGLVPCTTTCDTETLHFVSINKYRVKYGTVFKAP
Described as above.

These are yes or no findings as the source states them, for the method shown. Binding seen in cells or lysates may run through a third protein. Some entries that bind do so weakly or less than the wild type. For part of these data: Where a sequence is shown, tags or fusion partners need not be part of it.

For the molecule “FLAG-tagged HDAC1 (from UniProt Q13547 1-482) (enzyme)”, the binding result in test [1] and in test [2] was “binds” throughout.
Take “endogenous HDAC1 of C2C12 myoblasts (from UniProt O09106 1-482) (enzyme)”: the binding entry in test [3] and in test [4] was “binds” in each case.

B1: endogenous ING2 of C2C12 myoblasts (protein, UniProt Q9ESK4 1-281)
chain: MLGQQQQQQLYSSAALLTGERSRLLSCYVQDYLECVESLPHDMQRNVSVLRELDNKYQETLKEIDDVYEKYKKEDDSNQKKRLQQHLQRALINSQELGDEKIQIVTQMLELVENRARQMELHSQCFQDPAESERASDKSKMDSSQPERSSRRPRRQRTSESRDLCHMTNGIDDCDDQPPKEKRSKSAKKKKRSKAKQEREASPVEFAIDPNEPTYCLCNQVSYGEMIGCDNEQCPIEWFHFSCVSLTYKPKGKWYCPKCRGDNEKTMDKSTEKTKKERRAR
Take B1: the binding entry in test [5] and in test [6] was “binds” in each case.

B2: endogenous Sin3A of C2C12 myoblasts (protein, UniProt Q60520 1-1274)
chain: MKRRLDDQESPVYAAQQRRIPGSTEAFSHQHRVLAPAPPVYEAVSETMQSATGIQYSVAPNYQVSAVPQSSGSHGPAIAAVHSSHHHPTAVQPHGGQVVQSHAHPAPPVAPVQGQQQFQRLKVEDALSYLDQVKLQFGSQPQVYNDFLDIMKEFKSQSIDTPGVISRVSQLFKGHPDLIMGFNTFLPPGYKIEVQTNDMVNVTTPGQVHQIPTHGIQPQPQPPPQHPSQPSSQSAPTPAQPAPQPTAAKVSKPSQLQAHTPASQQTPPLPPYASPRSPPVQPHTPVTISLGTAPSLQNNQPVEFNHAINYVNKIKNRFQGQPDIYKAFLEILHTYQKEQRNAKEAGGNYTPALTEQEVYAQVARLFKNQEDLLSEFGQFLPDANSSVLLSKTTAEKVDSVRNDHGGTVKKPQLNNKPQRPSQNGCQIRRHSGTGATPPVKKKPKLMSLKESSMADASKHGVGTESLFFDKVRKALRSAEAYENFLRCLVIFNQEVISRAELVQLVSPFLGKFPELFNWFKNFLGYKESVHLESFPKERATEGIAMEIDYASCKRLGSSYRALPKSYQQPKCTGRTPLCKEVLNDTWVSFPSWSEDSTFVSSKKTQYEEHIYRCEDERFELDVVLETNLATIRVLEAIQKKLSRLSAEEQAKFRLDNTLGGTSEVIHRKALQRIYADKAADIIDGLRKNPSIAVPIVLKRLKMKEEEWREAQRGFNKVWREQNEKYYLKSLDHQGINFKQNDTKVLRSKSLLNEIESIYDERQEQATEENAGVPVGPHLSLAYEDKQILEDAAALIIHHVKRQTGIQKEDKYKIKQIMHHFIPDLLFAQRGDLSDVEEEEEEEMDVDEATGAPKKHNGVGGSPPKSKLLFSNTAAQKLRGMDEVYNLFYVNNNWYIFMRLHQILCLRLLRICSQAERQIEEENREREWEREVLGIKRDKSDSPAIQLRLKEPMDVDVEDYYPAFLDMVRSLLDGNIDSSQYEDSLREMFTIHAYIAFTMDKLIQSIVRQLQHIVSDEVCVQVTDLYLAENNNGATGGQLNSQTSRSLLESAYQRKAEQLMSDENCFKLMFIQSQGQVQLTVELLDTEEENSDDPVEAERWSDYVERYMSSDTTSPELREHLAQKPVFLPRNLRRIRKCQRGREQQEKEGKEGNSKKTMENVESLDKLECRFKLNSYKMVYVIKSEDYMYRRTALLRAHQSHERVSKRLHQRFQAWVDKWTKEHVPREMAAETSKWLMGEGLEGLVPCTTTCDTETLHFVSINKYRVKYGTVFKAP
In the case of B2, the binding entry in test [3] was “binds”.

B3: MYC epitope tagged wild type human ING2 (protein, UniProt Q9H160 1-280)
chain: MLGQQQQQLYSSAALLTGERSRLLTCYVQDYLECVESLPHDMQRNVSVLRELDNKYQETLKEIDDVYEKYKKEDDLNQKKRLQQLLQRALINSQELGDEKIQIVTQMLELVENRARQMELHSQCFQDPAESERASDKAKMDSSQPERSSRRPRRQRTSESRDLCHMANGIEDCDDQPPKEKKSKSAKKKKRSKAKQEREASPVEFAIDPNEPTYCLCNQVSYGEMIGCDNEQCPIEWFHFSCVSLTYKPKGKWYCPKCRGDNEKTMDKSTEKTKKDRRSR
For B3, the binding entry with FLAG-tagged HDAC1 and with MYC-tagged Sin3A was “binds” each time.
